Some of the results follow. Further columns of the screen follow, without active or inactive calls. Most of these compounds were active or inconclusive in the main read-out, so they are no random draw. Potencies come from curve fits of mixed quality, noted in brackets.
Assay: qHTS Assay to Find Inhibitors of Chronic Active B-Cell Receptor Signaling
Details: ABC-DLBCL IkBa-CBG/CBR reporter, luminescence ratio (green luciferase fused to IkBa over red control in TMD8 lymphoma cells), 4 h
Outline: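 Compounds up to 46 uM were incubated four hours with TMD8 cells whose green CBG68 luciferase is fused to IkappaBalpha; red CBR luminescence normalised the signal, and concentration-effect curves were fitted to fusion, red and ratio data.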

[1] = measured here: CBR red luminescence, cell number
[2] = measured here: IkBa-CBG green luminescence

Row | Structure (SMILES) | AC50 [1] | AC50 [2]
1 | CC(C)Nc1nc(-c2cccnc2)nc(-c2ccccc2)c1C#N | 0.251 µM [rising, full curve, poor fit] | 
2 | CN1CCCC(OC(=O)c2ccc(S(=O)(=O)N(C)C)cc2)C1 (configuration not stated) | 2.24 µM [falling, single point] | 
3 | O=[N+]([O-])c1cccc(-c2ccc(/C=N/NC(=S)NCc3ccco3)o2)c1 | 3.98 µM [rising, full curve] | 
4 | COc1ccc(-c2oc(/N=C/N3CCCC3)c(C#N)c2-c2ccc(OC)cc2)cc1 | 13 µM [rising, single point] | 
5 | COc1cccc(/C=N/NC(=O)C(=O)NCc2cccnc2)c1OC | 35.5 µM [rising, single point] | 
6 | O=C(/C=C/c1cccc([N+](=O)[O-])c1)N1CCN(Cc2ccccc2)CC1 | 31.6 µM [falling, single point] | 
7 | Cc1ccc(C)c2[nH]c(=O)c(CN(Cc3ccc4c(c3)OCO4)Cc3nnnn3Cc3ccco3)cc12 | 11.2 µM [falling, partial curve, poor fit] | 
8 | O=C(NCc1ccco1)c1cnn2c1NC(c1ccccc1)CC2C(F)(F)F (configuration not stated) | 4.47 µM [falling, single point] | 
9 | Cn1c(SCc2ccccc2)nnc1-c1cccs1 | 35.5 µM [falling, single point] | 
10 | Cc1c(Cl)c([N+](=O)[O-])nn1CC(=O)NCCCN1CCOCC1 | 0.2 µM [rising, full curve, poor fit] | 
11 | COc1ccc(OC)c(-c2c[n+](=O)c3c(n2[O-])CCCC3)c1 | 7.94 µM [rising, partial curve, poor fit] | 
12 | COC(=O)c1ccccc1NC(=O)NC1CCC(C)CC1 (configuration not stated) | 7.08 µM [falling, partial curve, poor fit] | 
13 | COc1c(C(=O)Nc2c(C)n(C)n(-c3ccccc3)c2=O)ccc2ccccc12 | 29.1 µM [rising, single point] | 
14 | CN(C)c1cccc(C(=O)Nc2nc3ccccc3[nH]2)c1 | 3.16 µM [falling, full curve] | 
15 | CN(Cc1ccccc1)C(=O)COc1cc(=O)n(C)c2ccccc12 | 23.1 µM [falling, single point] | 
16 | CCCCN(C)CC(O)Cn1cc(/C=C/C(=O)c2ccc(C)cc2)c2ccccc21 (configuration not stated) | 15.8 µM [falling, single point] | 
17 | CCN(CC)C(=O)c1cc2sc3ccccc3c2s1 | 17.8 µM [falling, single point] | 
18 | O=C1NC(=O)C2(COC(c3ccccc3Cl)OC2)S1 (configuration not stated) | 23.1 µM [rising, partial curve, poor fit] | 
19 | CCOc1ccccc1-c1nc(-c2ccc(NC(=O)Cc3ccccc3OC)cc2)no1 | 29.1 µM [falling, single point] | 
20 | COc1cccc(NC(=O)c2cnc[nH]2)c1 | 12.6 µM [falling, partial curve, poor fit] | 
21 | COC(=O)c1ccc(C)c(NS(=O)(=O)c2ccc3c(c2)OCCO3)c1 | 20.6 µM [rising, partial curve] | 16.4 µM [falling, partial curve]

Taken from above.
COc1cccc(/C=N/NC(=O)C(=O)NCc2cccnc2)c1OC – AC50 [1]: 35.5 µM [rising, single point]
O=C1NC(=O)C2(COC(c3ccccc3Cl)OC2)S1 (configuration not stated) – AC50 [1]: 23.1 µM [rising, partial curve, poor fit]

Next records

Row | Structure (SMILES) | AC50 [1] | AC50 [2]
22 | O=C(COC(=O)Cc1ccc(Cl)cc1)Nc1ccccc1F | 1.26 µM [falling, full curve, poor fit] | 
23 | CCN(CCNC(=O)c1ccc(CSc2nc3ccncc3[nH]2)cc1)c1ccccc1 |  | 7.31 µM [falling, partial curve, poor fit]
24 | Cc1occc1-c1nnc(SCC(=O)Nc2ccc(F)cc2)n1Cc1ccccc1 | 2.59 µM [rising, single point] | 
25 | NC(=O)c1ccccc1N/C=C/C(=O)c1cccs1 | 7.31 µM [falling, partial curve] | 
26 | CC(=O)c1sc(NC(=O)COc2c(C)cc(Cl)cc2C)nc1C | 0.282 µM [falling, full curve, poor fit] | 
27 | Cc1cc(C(=O)NCCN2CCN(c3cccc(Cl)c3)CC2)n(-c2ccccc2)n1 |  | 23.1 µM [falling, single point]
28 | Cc1[nH]c2ccccc2c1/C=N/NC(=O)c1ccc(N)cc1 | 10 µM [falling, partial curve, poor fit] | 
29 | Cc1cc(F)ccc1NC(=O)c1cnccn1 | 10 µM [rising, partial curve, poor fit] | 
30 | CCc1ccc2oc(-c3ccc(N)cc3)nc2c1 | 10.3 µM [falling, partial curve, poor fit] | 
31 | O=C(Nc1ccccc1N1CCOCC1)c1ccc2c(c1)OCCO2 | 6.31 µM [falling, single point] | 
32 | COc1cc(NC(=O)CN2C(=O)NC(C)(c3ccc4ccccc4c3)C2=O)c(C)cc1[N+](=O)[O-] (configuration not stated) | 1.64 µM [falling, partial curve, poor fit] | 
33 | CCOC(=O)CNC(=O)CSc1ncccc1-c1nc2ccccc2[nH]1 | 0.794 µM [falling, full curve] | 
34 | Cc1cccc(C(=O)Nc2ccc3ccccc3c2)c1 | 7.94 µM [falling, partial curve] | 
35 | Cc1cc(C)n(-c2ccc(C(=O)Nc3cc(S(=O)(=O)N(C)C)ccc3Cl)cc2)n1 | 0.651 µM [falling, full curve, poor fit] | 
36 | Cc1cccc(NS(=O)(=O)c2ccc(C(=O)NCC3(N4CCCCC4)CCCCC3)cc2)c1C | 4.11 µM [falling, single point] | 
37 | Cc1cc(C)c2nc(/N=C(\N)NC(=O)c3ccccc3)nc(C)c2c1 | 0.316 µM [falling, full curve] | 
38 | COc1cccc(-c2noc(-c3ccoc3C)n2)c1 | 3.98 µM [rising, single point] | 
39 | CN(CC(=O)Nc1ccccc1Br)Cc1nc2ccccc2c(=O)[nH]1 | 11.2 µM [rising, partial curve, poor fit] | 
40 | Cc1ccc(C(=O)Nc2cccnc2Oc2ccc(Cl)cc2)cc1 | 3.55 µM [rising, single point] | 
41 | O=C(NCCC1=CCCCC1)C1CCCN(c2nc3ccccc3o2)C1 (configuration not stated) | 0.355 µM [falling, full curve, poor fit] | 
42 | O=C(CN1CCN(S(=O)(=O)c2ccccc2)CC1)Nc1ccccc1C(=O)c1ccccc1 | 20.6 µM [falling, partial curve, poor fit] | 

Row | Structure (SMILES) | AC50 [1] | AC50 [2]
43 | CCN1CCN(Cc2ccc(NC(=O)c3ccc(C)c(NC(=O)c4nccnc4N)c3)cc2C(F)(F)F)CC1 | 20 µM [falling, partial curve, poor fit] | 4.47 µM [rising, full curve, poor fit]
44 | O=C(CN1CCC(NC(=O)Nc2ccccc2)CC1)Nc1cccc([N+](=O)[O-])c1 | 14.1 µM [falling, partial curve, poor fit] | 
45 | Cc1cc(=O)oc2cc(OCCSCCN3CCOCC3)ccc12 | 7.08 µM [rising, partial curve, poor fit] | 
46 | O=C(CCCN1C(=O)/C(=C\c2ccccc2)SC1=S)Nc1ccc(O)cc1 | 2.51 µM [falling, full curve] | 
47 | CCn1c(=O)n(CC(=O)N(C)Cc2ccccc2)c(=O)c2ccccc21 | 0.00461 µM [falling, full curve, poor fit] | 
48 | COc1cccc(C(=O)N/N=C(\CC(C)C)c2ccccc2)c1 | 8.2 µM [falling, partial curve] | 
49 | CCc1cn(S(=O)(=O)c2ccccc2OC)nc1N | 1.3 µM [falling, full curve, poor fit] | 
50 | CCc1nn2c(=O)cc(COc3cccc(NC(=O)c4ccco4)c3)nc2s1 | 2.24 µM [falling, full curve] | 
51 | O=c1c(Cl)c(N2CCN(c3ccc(F)cc3)CC2)cnn1-c1nc2ccccc2s1 | 3.26 µM [rising, partial curve, poor fit] | 
52 | Cc1ccc(-n2c(C)c(C)c3c(NCCCO)ncnc32)cc1 | 14.1 µM [falling, single point] | 
53 | COc1cccc(/C=C2\SC(=S)N(CCCC(=O)NC3=NCCS3)C2=O)c1 | 1.41 µM [falling, full curve] | 
54 | CCOc1ccc(C(=O)CC(C(=O)O)N2CCCCC2)cc1 (configuration not stated) | 29.1 µM [falling, single point] | 
55 | COc1ccc2c(c1OC)C(=O)N1c3ccccc3C(=O)N(c3ccccc3)C21 (configuration not stated) | 29.1 µM [falling, single point] | 
56 | CCCn1nc([N+](=O)[O-])c(C(C#N)c2nc3ccccc3s2)c(Cl)c1=O (configuration not stated) | 3.66 µM [falling, partial curve] | 20.6 µM [rising, partial curve, poor fit]
57 | COc1cc(NCc2ccccc2)c2ncn(C(C)C)c2c1 | 7.31 µM [rising, partial curve, poor fit] | 
58 | CCN1C(=O)CC(C(=O)Nc2ccc(F)cc2)SC1=Nc1cccc(OC)c1 (configuration not stated) | 35.5 µM [falling, single point] | 
59 | COCCCNC(=S)N1CCCC(c2nc3cc(C)c(C)cc3[nH]2)C1 (configuration not stated) | 35.5 µM [falling, single point] | 
60 | O=C(CSc1nnnn1-c1ccc(O)cc1)NC1CCCCC1 | 12.6 µM [falling, partial curve, poor fit] | 
61 | CCCCCn1nc(C(=O)OCC(=O)c2c(N)n(C)c(=O)n(C)c2=O)c2ccccc2c1=O | 14.1 µM [falling, single point] | 15.8 µM [rising, partial curve, poor fit]
62 | Cc1ccc(NC(=O)NCCSc2ccc(C)cc2)cc1 | 35.5 µM [rising, single point] | 
63 | O=C1/C(=C/c2ccc([N+](=O)[O-])cc2)Oc2cc(O)ccc21 | 1.41 µM [rising, partial curve] | 
